Consider one substance from PMC7295941.

Sequences of proteins named here, by UniProt entry; tags and fusion partners are left off.
UniProt Q14680: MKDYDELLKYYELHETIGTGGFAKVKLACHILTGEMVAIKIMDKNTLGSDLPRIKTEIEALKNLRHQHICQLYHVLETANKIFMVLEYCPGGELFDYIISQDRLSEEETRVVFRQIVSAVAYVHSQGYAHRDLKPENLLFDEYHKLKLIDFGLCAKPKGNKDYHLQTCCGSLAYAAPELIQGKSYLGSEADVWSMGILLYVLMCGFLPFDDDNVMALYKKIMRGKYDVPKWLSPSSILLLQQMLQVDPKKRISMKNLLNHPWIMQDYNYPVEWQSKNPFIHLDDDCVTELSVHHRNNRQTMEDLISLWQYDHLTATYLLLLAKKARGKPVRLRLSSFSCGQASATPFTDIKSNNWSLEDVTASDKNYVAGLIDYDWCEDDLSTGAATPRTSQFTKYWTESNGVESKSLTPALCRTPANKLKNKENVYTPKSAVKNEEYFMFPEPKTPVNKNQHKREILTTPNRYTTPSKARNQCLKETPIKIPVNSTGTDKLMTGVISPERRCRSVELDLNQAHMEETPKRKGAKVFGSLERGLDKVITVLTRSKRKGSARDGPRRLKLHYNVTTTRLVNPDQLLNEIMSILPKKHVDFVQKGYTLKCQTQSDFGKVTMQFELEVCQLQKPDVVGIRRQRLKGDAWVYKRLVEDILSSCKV

No constants are given. Whether binding was seen depends on the method and setting. In cells and extracts the contact can be indirect. Some entries that bind do so weakly or less than the wild type.

The experiment has as its target T1, Forkhead box M1 (UniProt Q08050).
T1 sequence: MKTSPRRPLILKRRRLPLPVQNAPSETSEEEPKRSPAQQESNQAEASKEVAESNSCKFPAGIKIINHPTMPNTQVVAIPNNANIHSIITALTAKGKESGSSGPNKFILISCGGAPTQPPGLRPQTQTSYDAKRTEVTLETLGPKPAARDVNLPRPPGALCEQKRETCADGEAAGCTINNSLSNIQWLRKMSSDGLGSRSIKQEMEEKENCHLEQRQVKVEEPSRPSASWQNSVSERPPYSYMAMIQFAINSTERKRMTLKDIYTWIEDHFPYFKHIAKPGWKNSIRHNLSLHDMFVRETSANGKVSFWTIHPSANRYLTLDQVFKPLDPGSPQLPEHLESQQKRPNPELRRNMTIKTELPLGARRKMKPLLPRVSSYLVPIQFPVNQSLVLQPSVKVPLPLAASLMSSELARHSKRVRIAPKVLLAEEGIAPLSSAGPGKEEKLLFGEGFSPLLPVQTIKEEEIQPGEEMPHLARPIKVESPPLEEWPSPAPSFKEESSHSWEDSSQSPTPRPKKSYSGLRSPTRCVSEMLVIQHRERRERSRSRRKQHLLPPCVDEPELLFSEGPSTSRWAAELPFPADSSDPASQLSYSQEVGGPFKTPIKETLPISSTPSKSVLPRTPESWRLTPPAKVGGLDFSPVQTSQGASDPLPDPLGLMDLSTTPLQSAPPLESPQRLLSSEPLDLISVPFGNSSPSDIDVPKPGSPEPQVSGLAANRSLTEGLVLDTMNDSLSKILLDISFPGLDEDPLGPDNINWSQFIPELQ
Nature of the experiment: co-IP; extracts of MDA-MB-231/DOC-FoxM1TF cells incubated with or without the indicated drugs (DOC, MA) for 24 h; extracts with antibody at 4°C for 24 h, then protein A-Sepharose 4B or beads at 4°C for 4 h; western blot.

Consider “Maternal embryonic leucine-zipper kinase (from UniProt Q14680 1-651) (enzyme)”, for which the binding result is recorded as “binds”.
